# The supplement of paper PMC4749390
# Several values for one entry are separate records, joined by “and”; a condition that tells them apart may be missing. Equal entries are not always repeated. Structures can show the parent of a compound that is named as a salt. Some of the results follow. Repeats in this data set agree poorly, so a single value says little.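 JEG3 cells stably express tetracycline-inducible wild-type human LRH-1, a highly sumoylated nuclear receptor. SUMO-sensitive transcripts APOC3 and MUC1, increased by SUMO-deficient LRH-1 or UBC9 knockdown, were quantified by RT-qPCR relative to TBP and DMSO controls. Primary hits had robust Z-scores above +2 or below -2, before toxicity and TBP filtering.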
# System: JEG3 expressing hLRH-1
# Test: APOC3 transcript change (ddCt vs TBP and DMSO), Z-score over library; higher = higher APOC3 expression
# Details: 10 µM; time (hr): 24
row,SMILES,APOC3 transcript change (Z-score)
1,CCCCCCCCCCC[C@@H](C[C@@H]1OC(=O)[C@H]1CCCCCC)OC(=O)[C@H](CC(C)C)NC=O [orlistat],1.41
2,C[C@H]1CC2C3CCC4=CC(=O)C=C[C@]4(C)[C@@]3(F)[C@@H](O)C[C@]2(C)[C@@]1(O)C(=O)CO (stereo partly drawn) [betamethasone],0.121
3,OC(CCN1CCCCC1)(c1ccccc1)C1CCCCC1 (stereo not drawn) [Trihexyphenidyl hydrochloride],-0.213
4,OCCOCCN1CCN(C2=Nc3ccccc3Sc3ccccc32)CC1 [quetiapine],-1.14
5,Cc1ncc([N+](=O)[O-])n1CC(O)CCl (stereo not drawn) [ornidazole],-0.931
6,COc1ccc(/C=C/C(=O)Nc2ccccc2C(=O)O)cc1OC [tranilast],0.0523
7,C#C[C@]1(O)CC[C@H]2[C@@H]3CCc4cc(OC5CCCC5)ccc4[C@H]3CC[C@@]21C [quinestrol],-0.361
8,Cc1nc(N)cc(C[n+]2csc(CCO)c2C)n1 [thiamine],0.0941
9,Cc1ccccc1N1C(=O)c2cc(S(N)(=O)=O)c(Cl)cc2NC1C (stereo not drawn) [metolazone],0.696
10,COc1cc(Cc2cnc(N)nc2N)cc(OC)c1OC [Trimethoprim],0.17
11,COc1ccccc1OCCNCC(O)COc1cccc2[nH]c3ccccc3c12 (stereo not drawn) [carvedilol],0.356 and 0.412
12,CC[C@@]1(O)C(=O)OCc2c1cc1n(c2=O)Cc2cc3c(CN(C)C)c(O)ccc3nc2-1 [topotecan hydrochloride],-3.44
13,COCC1=C(C(=O)OC(C)OC(=O)OC(C)C)N2C(=O)[C@@H](NC(=O)/C(=N\OC)c3csc(N)n3)[C@H]2SC1 (stereo partly drawn) [cefpodoxime proxetil],-0.000448
14,C[C@H]1[C@H](OC(=O)CCC(=O)O)O[C@@H]2O[C@@]3(C)CC[C@H]4[C@H](C)CC[C@@H]1[C@@]24OO3 [artesunate],0.294
15,CCCCC(CC)CN1CN(CC(CC)CCCC)CC(C)(N)C1 (stereo not drawn) [hexetidine],0.308
16,O=C(O)CN(CCN(CC(=O)O)CC(=O)O)CCN(CC(=O)O)CC(=O)O [pentetic acid],1.04
17,Cc1c(NC(C)C)c(=O)n(-c2ccccc2)n1C [ramifenazone],-0.189
18,C[C@H](Cn1cnc2c(N)ncnc21)OCP(=O)(O)O [tenofovir],0.525
19,C[C@@H]1CN(c2c(F)c(F)c3c(=O)c(C(=O)O)cn(C4CC4)c3c2F)C[C@H](C)N1 [orbifloxacin],0.237
20,C#C[C@]1(O)CCC2C3CCC4=C(CCC(=O)C4)C3CC[C@@]21C (stereo partly drawn) [norethynodrel],0.439
21,CCCCNc1ccc(C(=O)OCCOCCOCCOCCOCCOCCOCCOCCOCCOC)cc1 [benzonatate],-0.926
22,O=C(OCc1ccccc1)c1ccccc1 [benzyl benzoate],0.182
23,COc1ccc(Cc2cnc(N)nc2N)cc1OC [diaveridine],-0.256
24,Cc1c(N(C)CS(=O)(=O)O)c(=O)n(-c2ccccc2)n1C [dipyrone],-0.644
25,CC(C)CC(N)=O [isovaleramide],-1.09

row,SMILES,APOC3 transcript change (Z-score)
1,COCCCOc1cc(C[C@@H](C[C@H](N)[C@@H](O)C[C@H](C(=O)NCC(C)(C)C(N)=O)C(C)C)C(C)C)ccc1OC [aliskiren hemifumarate],0.238
2,O=P(O)(O)C(O)(Cc1cccnc1)P(=O)(O)O [risedronate sodium],-0.0644
3,C[C@H](CCC(=O)O)[C@H]1CCC2C3C(CC[C@@]21C)[C@@]1(C)CC[C@@H](O)C[C@H]1C[C@@H]3O (stereo partly drawn) [ursodiol],-0.314
4,Cc1onc(-c2c(Cl)cccc2Cl)c1C(=O)N[C@@H]1C(=O)N2[C@@H]1SC(C)(C)[C@@H]2C(=O)O [dicloxacillin sodium],0.626
5,CCCCC(=O)N(Cc1ccc(-c2ccccc2-c2nn[nH]n2)cc1)[C@H](C(=O)O)C(C)C [valsartan],-0.175
6,O=C(O)c1cc(N=Nc2ccc(S(=O)(=O)Nc3ccccn3)cc2)ccc1O [sulfasalazine],-0.439
7,CCCCOC(=O)c1ccc(N)cc1 [butamben],-0.611
8,NNC(=O)c1ccncc1.Nc1ccc(C(=O)O)c(O)c1 [pasiniazid],-0.209
9,O=C(CCCl)NCCc1ccccc1 [fenaclon],-0.0642
10,NS(=O)(=O)c1cc2c(cc1Cl)NC=NS2(=O)=O [Chlorothiazide],0.466
11,CNS(=O)(=O)Cc1ccc2[nH]cc(CCN(C)C)c2c1 [sumatriptan succinate],-0.94
12,NS(=O)(=O)c1cc(C(=O)O)c(NCc2ccco2)cc1Cl [furosemide],-1.06
13,Cc1cc2cc3c(C)cc(=O)oc3c(C)c2o1 [trioxsalen],-0.0912
14,CCCCC(CC)COc1ccc(-c2nc(-c3ccc(OC)cc3)nc(-c3ccc(OCC(CC)CCCC)cc3O)n2)c(O)c1 (stereo not drawn) [bemotrizinol],-0.0333
15,CN(C)CC(c1ccc(O)cc1)C1(O)CCCCC1 (stereo not drawn) [desvenlafaxine succinate],-0.179
16,O=c1n(CCCN2CCN(c3cccc(Cl)c3)CC2)nc2ccccn12 [Trazodone hydrochloride],0.301
17,CC(CN(C)C)CN1c2ccccc2CCc2ccccc21 (stereo not drawn) [trimipramine maleate],0.271
18,CN1CCCN=C1COC(=O)C(O)(c1ccccc1)C1CCCCC1 (stereo not drawn) [oxyphencyclimine hydrochloride],-0.187
19,COc1c(C)c2c(c(O)c1C/C=C(\C)CCC(=O)O)C(=O)OC2 [mycophenolic acid],2.11
20,CC(=O)Nc1ccc(CC(=O)O)cc1 [actarit],2.94
21,CC(=O)OCC(=O)[C@@]12N=C(C)O[C@@H]1C[C@H]1[C@@H]3CCC4=CC(=O)C=C[C@]4(C)[C@H]3[C@@H](O)C[C@@]12C [deflazacort],1.48
22,C1CCN2C[C@@H]3C[C@H](CN4CCCC[C@@H]34)[C@H]2C1 [sparteine sulfate],-0.0227
23,CCN1CCCC(OC(=O)C(c2ccccc2)c2ccccc2)C1 (stereo not drawn) [piperidolate hydrochloride],-0.397
24,CC(C)(C)NC[C@H](O)c1ccc(O)c(CO)c1 [levalbuterol hydrochloride],0.475
25,CN(C)[C@@H]1C(=O)C(C(=O)NCN2CCCC2)=C(O)[C@@]2(O)C(O)=C3C(=O)c4c(O)cccc4[C@@](C)(O)[C@H]3C[C@@H]12 [rolitetracycline],1.19

row,SMILES,APOC3 transcript change (Z-score)
1,CC(C)Nc1ncccn1 [isaxonine],0.352
2,CCCCCCCCCCCCC[N+](C)(C)Cc1ccccc1 [benzalkonium chloride],0.708
3,CCCCCCCCCCOc1cc2c(O)c(C(=O)OCC)cnc2cc1OCC [decoquinate],0.908
4,CCc1cccc2c3c([nH]c12)C(CC)(CC(=O)O)OCC3 (stereo not drawn) [etodolac],0.254
5,CC(=O)[C@H]1CC[C@H]2[C@@H]3C[C@H](C)C4=CC(=O)CC[C@]4(C)[C@H]3[C@@H](O)C[C@]12C [medrysone],1.1
6,CN1C(C(=O)Nc2ccccn2)=C(O)c2sccc2S1(=O)=O [tenoxicam],-0.762
7,CCCCNC(=O)NS(=O)(=O)c1ccc(C)cc1 [Tolbutamide],-0.958
8,C[C@]12C=CC(=O)C=C1CC[C@@H]1[C@@H]2[C@@H](O)C[C@@]2(C)[C@H]1CC[C@]2(O)C(=O)COC(=O)CCC(=O)O [prednisolone hemisuccinate],-0.244
9,COC(=O)[C@@H]1[C@H]2C[C@H]3c4[nH]c5ccccc5c4CCN3C[C@@H]2CC[C@@H]1O [yohimbine hydrochloride],-0.195
10,O=C1CCc2ccc(OCCCCN3CCN(c4cccc(Cl)c4Cl)CC3)cc2N1 [aripiprazole],0.367
11,O=C(O)c1ccc[n+]([O-])c1 [oxiniacic acid],-2.35
12,CCCCCCc1ccc(O)cc1O [hexylresorcinol],0.221
13,C[C@H]1COc2c(C3(N)CC3)c(F)cc3c(=O)c(C(=O)O)cn1c23 [pazufloxacin mesylate],-1.29
14,CCC(C)[C@H]1O[C@]2(C=C[C@@H]1C)C[C@@H]1C[C@@H](C/C=C(\C)[C@@H](OC3C[C@H](OC)C(O[C@H]4C[C@H](OC)[C@@H](NC(C)=O)[C@H](C)O4)[C@H](C)O3)[C@@H](C)/C=C/C=C3\CO[C@@H]4[C@H](O)C(C)=C[C@@H](C(=O)O1)[C@]34O)O2 (stereo partly drawn) [eprinomectin],1.04
15,C[C@]12CC[C@@H]3c4ccc(O)cc4C[C@@H](CCCCCCCCCS(=O)CCCC(F)(F)C(F)(F)F)[C@H]3[C@@H]1CC[C@@H]2O (stereo partly drawn) [fulvestrant],-0.581
16,CO[C@@H]1[C@@H](O[C@@H]2O[C@H](C)[C@@H](O[C@H]3C[C@@](C)(O)[C@H](O)[C@H](C)O3)[C@H](N(C)C)[C@H]2O)[C@@H](CC=O)C[C@@H](C)[C@@H](O[C@H]2CC[C@H](N(C)C)[C@@H](C)O2)/C=C/C=C/C[C@H](C)OC(=O)C[C@H]1O [spiramycin],0.4
17,N=C(N)NCC1COC2(CCCCC2)O1 (stereo not drawn) [guanadrel sulfate],-0.558
18,CCCCOc1cc(C(=O)NCCN(CC)CC)c2ccccc2n1 [dibucaine hydrochloride],-0.14
19,Cc1cc(C(C)(C)CC(C)(C)C)ccc1OCCOCC[N+](C)(C)Cc1ccccc1 [methylbenzethonium chloride],0.549
20,CC(C)[C@H](NC(=O)[C@H](CC(=O)O)NC(=O)[C@H](CCCCN)NC(=O)[C@@H](N)CCCN=C(N)N)C(=O)N[C@@H](Cc1ccc(O)cc1)C(=O)O [thymopentin],-0.412
21,CC(=O)[C@H]1CCC2C3CC=C4C[C@@H](O)CC[C@]4(C)C3CC[C@@]21C (stereo partly drawn) [pregnenolone],0.361
22,Cc1cc(NC(=O)C2=C(O)c3ccccc3S(=O)(=O)N2C)no1 [isoxicam],-2.37
23,Oc1ncc(F)c(O)n1 [fluorouracil],-1.04

# Some of the entries so far, bar-delimited.
row | SMILES | APOC3 transcript change (Z-score)
9 | COC(=O)[C@@H]1[C@H]2C[C@H]3c4[nH]c5ccccc5c4CCN3C[C@@H]2CC[C@@H]1O [yohimbine hydrochloride] | -0.195
10 | O=C1CCc2ccc(OCCCCN3CCN(c4cccc(Cl)c4Cl)CC3)cc2N1 [aripiprazole] | 0.367
11 | O=C(O)c1ccc[n+]([O-])c1 [oxiniacic acid] | -2.35
12 | CCCCCCc1ccc(O)cc1O [hexylresorcinol] | 0.221
